Results: US20140255921
For at least one entry, the source does not settle the construct or the ends of the probe. Where a protein sequence is shown, tags need not be part of it.

Experiments:
Assay in all cases: activity assay
Settings in all cases: four spacer 9 (triethylene glycol) groups at 3' end of SEQ 63; unwinding rate relative to native 3' (internal binding); 400 mM NaCl, 1 mM ATP, 1 mM MgCl2, pH 8.0; purified recombinant protein; label: 5' FAM on SEQ 63, 3' BHQ1 on SEQ 62
[1] = tested on: T1, Hel308 Mhu (Methanospirillum hungatei)
T1 sequence: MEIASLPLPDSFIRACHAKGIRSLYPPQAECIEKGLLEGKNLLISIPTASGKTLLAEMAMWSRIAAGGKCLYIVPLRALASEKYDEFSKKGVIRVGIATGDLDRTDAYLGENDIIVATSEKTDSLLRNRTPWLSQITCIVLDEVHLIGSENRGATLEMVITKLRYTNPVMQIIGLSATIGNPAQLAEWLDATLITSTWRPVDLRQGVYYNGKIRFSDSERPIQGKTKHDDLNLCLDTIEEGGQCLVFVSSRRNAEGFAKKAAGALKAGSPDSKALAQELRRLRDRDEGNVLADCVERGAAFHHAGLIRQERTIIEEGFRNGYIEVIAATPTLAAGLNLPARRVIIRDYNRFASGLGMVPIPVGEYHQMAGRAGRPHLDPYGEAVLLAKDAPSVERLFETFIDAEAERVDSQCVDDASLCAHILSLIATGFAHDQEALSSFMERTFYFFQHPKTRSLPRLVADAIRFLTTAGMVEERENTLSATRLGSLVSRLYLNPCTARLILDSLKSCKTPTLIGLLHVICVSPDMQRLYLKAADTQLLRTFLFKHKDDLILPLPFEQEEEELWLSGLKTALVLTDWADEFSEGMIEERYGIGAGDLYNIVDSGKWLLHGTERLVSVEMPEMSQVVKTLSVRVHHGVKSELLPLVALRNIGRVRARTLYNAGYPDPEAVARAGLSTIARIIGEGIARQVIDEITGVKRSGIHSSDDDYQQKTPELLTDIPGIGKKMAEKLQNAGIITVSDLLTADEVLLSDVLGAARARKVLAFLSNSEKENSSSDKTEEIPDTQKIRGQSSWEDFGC

[2] = tested on: T2, Hel308 Min (Methanocaldococcus infernus)
T2 sequence: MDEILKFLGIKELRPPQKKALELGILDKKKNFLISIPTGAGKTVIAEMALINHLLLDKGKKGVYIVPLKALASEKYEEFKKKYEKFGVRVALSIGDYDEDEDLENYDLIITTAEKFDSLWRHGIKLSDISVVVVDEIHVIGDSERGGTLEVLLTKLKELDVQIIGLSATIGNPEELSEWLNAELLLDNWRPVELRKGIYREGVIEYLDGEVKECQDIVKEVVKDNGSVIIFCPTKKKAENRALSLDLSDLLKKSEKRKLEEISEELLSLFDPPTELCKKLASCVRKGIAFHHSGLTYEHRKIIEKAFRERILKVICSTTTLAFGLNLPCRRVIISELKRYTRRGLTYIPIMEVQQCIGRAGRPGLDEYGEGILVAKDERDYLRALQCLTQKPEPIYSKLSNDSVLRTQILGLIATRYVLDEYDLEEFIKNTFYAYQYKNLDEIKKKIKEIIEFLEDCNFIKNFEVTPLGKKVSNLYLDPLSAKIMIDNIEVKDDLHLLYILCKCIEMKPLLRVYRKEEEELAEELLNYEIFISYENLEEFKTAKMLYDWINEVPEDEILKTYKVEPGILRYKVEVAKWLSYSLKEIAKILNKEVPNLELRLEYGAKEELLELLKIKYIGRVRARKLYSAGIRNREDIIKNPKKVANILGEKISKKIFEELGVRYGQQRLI

[3] = tested on: T3, Hel308 Mma (Methanococcus maripaludis)
T3 sequence: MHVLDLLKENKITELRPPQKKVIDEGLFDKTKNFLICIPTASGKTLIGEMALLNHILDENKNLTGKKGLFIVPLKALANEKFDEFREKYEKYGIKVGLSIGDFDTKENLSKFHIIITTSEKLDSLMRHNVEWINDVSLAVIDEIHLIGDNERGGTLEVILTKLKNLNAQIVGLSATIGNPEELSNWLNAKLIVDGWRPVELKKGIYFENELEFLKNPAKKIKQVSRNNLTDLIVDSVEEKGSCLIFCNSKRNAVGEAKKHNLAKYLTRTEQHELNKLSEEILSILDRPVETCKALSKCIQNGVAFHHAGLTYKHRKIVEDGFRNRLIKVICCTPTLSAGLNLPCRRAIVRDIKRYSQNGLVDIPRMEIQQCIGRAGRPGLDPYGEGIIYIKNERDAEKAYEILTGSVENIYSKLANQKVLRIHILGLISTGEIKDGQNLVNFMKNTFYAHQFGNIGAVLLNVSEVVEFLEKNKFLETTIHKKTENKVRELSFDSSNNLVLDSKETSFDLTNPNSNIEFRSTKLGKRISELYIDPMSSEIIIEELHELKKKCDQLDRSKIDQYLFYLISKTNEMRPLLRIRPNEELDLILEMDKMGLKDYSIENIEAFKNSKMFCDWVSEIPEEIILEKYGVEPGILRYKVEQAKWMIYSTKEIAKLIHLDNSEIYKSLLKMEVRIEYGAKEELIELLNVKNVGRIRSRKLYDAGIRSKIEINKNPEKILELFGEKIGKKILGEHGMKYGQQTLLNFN

[4] = tested on: T4, Hel308 Tga (Thermococcus gammatolerans)
T4 sequence: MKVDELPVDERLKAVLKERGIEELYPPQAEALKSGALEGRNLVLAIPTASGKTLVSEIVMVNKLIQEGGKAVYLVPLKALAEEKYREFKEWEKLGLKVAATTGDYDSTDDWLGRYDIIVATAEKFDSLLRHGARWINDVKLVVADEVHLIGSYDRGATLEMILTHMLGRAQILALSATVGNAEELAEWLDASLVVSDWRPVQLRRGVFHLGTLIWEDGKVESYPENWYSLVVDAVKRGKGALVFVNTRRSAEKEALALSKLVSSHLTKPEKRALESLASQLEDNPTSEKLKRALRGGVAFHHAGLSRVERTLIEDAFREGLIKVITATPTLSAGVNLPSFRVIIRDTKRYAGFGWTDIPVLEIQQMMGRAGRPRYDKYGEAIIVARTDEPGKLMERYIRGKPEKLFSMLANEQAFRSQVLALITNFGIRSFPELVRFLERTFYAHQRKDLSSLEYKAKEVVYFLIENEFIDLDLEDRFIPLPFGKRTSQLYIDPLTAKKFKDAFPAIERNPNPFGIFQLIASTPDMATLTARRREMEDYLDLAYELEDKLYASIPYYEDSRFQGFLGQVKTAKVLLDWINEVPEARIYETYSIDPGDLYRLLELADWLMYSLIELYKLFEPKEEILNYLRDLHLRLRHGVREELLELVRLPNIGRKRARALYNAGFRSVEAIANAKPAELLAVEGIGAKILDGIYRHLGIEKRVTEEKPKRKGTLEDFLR

[5] = tested on: T5, Hel308 Csy (Cenarchaeum symbiosum)
T5 sequence: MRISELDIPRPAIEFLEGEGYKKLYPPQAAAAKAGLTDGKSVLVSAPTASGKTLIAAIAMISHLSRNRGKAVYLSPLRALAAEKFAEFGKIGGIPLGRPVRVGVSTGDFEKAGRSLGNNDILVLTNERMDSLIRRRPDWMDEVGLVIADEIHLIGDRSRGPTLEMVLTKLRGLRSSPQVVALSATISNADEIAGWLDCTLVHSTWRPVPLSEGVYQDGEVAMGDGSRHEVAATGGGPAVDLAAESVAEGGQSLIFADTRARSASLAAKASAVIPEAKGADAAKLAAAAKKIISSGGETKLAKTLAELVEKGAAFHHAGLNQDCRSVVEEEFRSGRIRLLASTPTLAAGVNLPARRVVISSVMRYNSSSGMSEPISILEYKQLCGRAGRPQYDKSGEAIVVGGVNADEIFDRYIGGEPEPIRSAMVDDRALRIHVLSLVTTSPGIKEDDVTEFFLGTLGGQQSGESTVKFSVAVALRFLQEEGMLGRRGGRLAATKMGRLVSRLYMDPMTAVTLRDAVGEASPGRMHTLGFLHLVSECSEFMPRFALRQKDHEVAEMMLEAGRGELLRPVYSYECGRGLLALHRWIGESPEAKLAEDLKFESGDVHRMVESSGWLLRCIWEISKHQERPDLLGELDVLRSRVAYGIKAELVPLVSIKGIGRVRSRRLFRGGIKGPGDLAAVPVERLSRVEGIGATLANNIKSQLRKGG

Measured: activity on this sequence

CTATTCTGTTTATGTTTCTTGTTTGTTAGCCCTATTCTGTCCCCCCCCCCACCCCCCCCC / ACAGAATAGGGCTAACAAACAAGAAACATAAACAGAATAG [3'-spacer 9 overhang substrate (Example 4)]
> 20%: all assays above
